Experimental data reported in the supplement of paper PMC10849652.
The list shows a part of the results.

Sequences of proteins named here, by UniProt entry; tags and fusion partners are left off. A change or cut given only in a name is not applied to a line headed by its entry.
UniProt Q9NRA8: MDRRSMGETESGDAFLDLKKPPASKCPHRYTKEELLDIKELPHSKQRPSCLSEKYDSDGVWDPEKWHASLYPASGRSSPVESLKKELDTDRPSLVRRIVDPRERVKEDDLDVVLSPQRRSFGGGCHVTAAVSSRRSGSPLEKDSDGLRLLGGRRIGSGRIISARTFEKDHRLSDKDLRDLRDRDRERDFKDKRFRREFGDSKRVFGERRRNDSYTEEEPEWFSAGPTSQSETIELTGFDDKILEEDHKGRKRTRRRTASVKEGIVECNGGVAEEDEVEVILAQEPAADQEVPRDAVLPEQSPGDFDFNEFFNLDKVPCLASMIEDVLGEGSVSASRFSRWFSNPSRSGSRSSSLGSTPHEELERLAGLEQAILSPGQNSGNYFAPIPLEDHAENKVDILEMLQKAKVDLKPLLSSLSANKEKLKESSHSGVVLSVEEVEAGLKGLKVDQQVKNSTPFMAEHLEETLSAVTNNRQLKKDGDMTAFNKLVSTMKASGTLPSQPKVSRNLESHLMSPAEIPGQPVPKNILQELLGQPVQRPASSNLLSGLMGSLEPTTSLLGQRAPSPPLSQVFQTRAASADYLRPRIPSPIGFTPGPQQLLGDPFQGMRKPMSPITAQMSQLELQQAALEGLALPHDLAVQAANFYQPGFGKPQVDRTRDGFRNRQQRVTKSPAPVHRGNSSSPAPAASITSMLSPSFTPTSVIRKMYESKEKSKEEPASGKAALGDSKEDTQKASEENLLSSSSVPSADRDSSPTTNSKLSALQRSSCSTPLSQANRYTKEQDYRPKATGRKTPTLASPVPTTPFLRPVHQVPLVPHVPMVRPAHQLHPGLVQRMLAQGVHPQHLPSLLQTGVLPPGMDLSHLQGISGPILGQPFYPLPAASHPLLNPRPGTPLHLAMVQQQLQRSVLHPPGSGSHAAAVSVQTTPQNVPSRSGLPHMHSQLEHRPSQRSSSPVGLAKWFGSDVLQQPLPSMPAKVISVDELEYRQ
UniProt Q9BV81: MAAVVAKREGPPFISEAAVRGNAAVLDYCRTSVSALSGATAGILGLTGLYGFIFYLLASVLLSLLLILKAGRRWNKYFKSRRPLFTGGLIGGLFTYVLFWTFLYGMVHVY
UniProt Q9UBQ5, whole entry, looked up: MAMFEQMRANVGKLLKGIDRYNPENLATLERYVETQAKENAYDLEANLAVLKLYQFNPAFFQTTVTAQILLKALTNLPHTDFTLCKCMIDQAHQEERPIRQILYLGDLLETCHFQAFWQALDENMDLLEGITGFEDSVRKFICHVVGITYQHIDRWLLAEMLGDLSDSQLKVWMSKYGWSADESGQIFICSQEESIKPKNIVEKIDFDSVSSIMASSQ
UniProt O43491, whole entry, looked up: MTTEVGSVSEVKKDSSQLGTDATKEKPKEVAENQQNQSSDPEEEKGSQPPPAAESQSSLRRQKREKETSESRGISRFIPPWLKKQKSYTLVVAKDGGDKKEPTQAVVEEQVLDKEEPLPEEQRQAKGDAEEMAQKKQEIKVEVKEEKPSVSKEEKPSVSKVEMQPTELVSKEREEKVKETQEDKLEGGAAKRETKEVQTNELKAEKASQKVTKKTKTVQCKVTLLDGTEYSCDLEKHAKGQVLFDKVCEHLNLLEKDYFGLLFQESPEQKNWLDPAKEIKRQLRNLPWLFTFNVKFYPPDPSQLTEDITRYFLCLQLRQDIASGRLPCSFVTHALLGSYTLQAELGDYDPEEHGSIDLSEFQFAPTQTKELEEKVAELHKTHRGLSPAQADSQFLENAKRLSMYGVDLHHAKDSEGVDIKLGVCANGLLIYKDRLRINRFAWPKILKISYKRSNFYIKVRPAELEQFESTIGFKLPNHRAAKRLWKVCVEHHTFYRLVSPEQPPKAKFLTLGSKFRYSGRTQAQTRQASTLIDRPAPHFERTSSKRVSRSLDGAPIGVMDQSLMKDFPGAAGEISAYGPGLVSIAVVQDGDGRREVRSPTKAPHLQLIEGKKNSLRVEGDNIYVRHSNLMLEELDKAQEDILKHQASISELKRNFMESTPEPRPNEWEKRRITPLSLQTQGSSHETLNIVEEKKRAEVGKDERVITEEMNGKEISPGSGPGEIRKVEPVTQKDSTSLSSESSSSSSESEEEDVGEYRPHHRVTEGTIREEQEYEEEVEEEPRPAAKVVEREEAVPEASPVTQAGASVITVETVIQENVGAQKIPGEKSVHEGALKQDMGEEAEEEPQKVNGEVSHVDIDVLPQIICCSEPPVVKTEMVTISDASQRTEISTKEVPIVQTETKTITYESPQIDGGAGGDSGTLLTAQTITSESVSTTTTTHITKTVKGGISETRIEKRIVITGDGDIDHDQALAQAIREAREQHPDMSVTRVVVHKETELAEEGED
UniProt Q13541: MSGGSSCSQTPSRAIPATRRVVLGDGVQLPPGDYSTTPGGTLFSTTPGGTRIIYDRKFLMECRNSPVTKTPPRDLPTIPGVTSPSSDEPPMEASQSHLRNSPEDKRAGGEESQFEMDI
UniProt Q9H4G0, whole entry, looked up: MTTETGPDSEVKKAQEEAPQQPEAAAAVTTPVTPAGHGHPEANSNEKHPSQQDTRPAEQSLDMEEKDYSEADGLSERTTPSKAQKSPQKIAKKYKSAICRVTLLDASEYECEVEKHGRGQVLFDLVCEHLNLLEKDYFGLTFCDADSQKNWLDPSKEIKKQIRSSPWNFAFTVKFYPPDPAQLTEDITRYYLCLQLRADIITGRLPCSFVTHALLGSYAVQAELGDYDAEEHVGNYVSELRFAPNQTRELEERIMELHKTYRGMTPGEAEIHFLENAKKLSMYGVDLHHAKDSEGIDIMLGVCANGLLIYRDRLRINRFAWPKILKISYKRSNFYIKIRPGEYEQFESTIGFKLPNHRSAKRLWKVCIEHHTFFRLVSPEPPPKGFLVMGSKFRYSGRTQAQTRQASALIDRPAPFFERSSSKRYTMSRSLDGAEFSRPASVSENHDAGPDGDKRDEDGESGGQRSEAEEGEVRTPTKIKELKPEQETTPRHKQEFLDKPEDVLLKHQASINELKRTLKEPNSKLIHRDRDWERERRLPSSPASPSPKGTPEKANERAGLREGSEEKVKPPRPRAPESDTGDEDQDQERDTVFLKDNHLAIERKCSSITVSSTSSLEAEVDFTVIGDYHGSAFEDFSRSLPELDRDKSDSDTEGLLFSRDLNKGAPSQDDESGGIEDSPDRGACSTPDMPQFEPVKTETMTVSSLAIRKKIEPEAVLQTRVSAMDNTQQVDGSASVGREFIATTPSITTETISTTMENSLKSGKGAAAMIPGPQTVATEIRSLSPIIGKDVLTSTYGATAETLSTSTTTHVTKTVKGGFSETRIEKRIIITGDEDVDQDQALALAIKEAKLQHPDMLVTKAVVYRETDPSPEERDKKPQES
UniProt Q9UBC2: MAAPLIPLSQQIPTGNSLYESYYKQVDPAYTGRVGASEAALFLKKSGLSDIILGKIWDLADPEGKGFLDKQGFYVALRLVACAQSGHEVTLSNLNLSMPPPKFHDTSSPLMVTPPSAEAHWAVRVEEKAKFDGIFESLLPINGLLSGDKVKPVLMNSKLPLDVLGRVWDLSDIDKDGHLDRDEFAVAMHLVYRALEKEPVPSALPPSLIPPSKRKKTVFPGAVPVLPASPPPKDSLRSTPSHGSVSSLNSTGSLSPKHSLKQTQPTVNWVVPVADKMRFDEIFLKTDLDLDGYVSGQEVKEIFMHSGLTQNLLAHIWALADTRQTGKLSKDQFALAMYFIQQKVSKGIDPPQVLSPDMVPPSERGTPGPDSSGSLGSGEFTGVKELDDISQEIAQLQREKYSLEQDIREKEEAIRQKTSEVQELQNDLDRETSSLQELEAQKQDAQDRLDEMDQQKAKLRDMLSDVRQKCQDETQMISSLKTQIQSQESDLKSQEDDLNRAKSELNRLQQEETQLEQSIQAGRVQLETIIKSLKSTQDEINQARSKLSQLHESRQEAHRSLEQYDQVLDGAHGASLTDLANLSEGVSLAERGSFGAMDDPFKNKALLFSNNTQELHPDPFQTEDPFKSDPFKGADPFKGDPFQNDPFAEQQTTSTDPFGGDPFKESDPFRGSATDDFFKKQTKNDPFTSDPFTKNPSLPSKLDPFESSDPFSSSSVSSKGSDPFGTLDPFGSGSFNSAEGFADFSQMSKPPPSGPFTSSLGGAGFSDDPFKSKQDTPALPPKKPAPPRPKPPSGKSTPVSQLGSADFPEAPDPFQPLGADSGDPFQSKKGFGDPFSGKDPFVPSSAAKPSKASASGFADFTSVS
UniProt Q8N766: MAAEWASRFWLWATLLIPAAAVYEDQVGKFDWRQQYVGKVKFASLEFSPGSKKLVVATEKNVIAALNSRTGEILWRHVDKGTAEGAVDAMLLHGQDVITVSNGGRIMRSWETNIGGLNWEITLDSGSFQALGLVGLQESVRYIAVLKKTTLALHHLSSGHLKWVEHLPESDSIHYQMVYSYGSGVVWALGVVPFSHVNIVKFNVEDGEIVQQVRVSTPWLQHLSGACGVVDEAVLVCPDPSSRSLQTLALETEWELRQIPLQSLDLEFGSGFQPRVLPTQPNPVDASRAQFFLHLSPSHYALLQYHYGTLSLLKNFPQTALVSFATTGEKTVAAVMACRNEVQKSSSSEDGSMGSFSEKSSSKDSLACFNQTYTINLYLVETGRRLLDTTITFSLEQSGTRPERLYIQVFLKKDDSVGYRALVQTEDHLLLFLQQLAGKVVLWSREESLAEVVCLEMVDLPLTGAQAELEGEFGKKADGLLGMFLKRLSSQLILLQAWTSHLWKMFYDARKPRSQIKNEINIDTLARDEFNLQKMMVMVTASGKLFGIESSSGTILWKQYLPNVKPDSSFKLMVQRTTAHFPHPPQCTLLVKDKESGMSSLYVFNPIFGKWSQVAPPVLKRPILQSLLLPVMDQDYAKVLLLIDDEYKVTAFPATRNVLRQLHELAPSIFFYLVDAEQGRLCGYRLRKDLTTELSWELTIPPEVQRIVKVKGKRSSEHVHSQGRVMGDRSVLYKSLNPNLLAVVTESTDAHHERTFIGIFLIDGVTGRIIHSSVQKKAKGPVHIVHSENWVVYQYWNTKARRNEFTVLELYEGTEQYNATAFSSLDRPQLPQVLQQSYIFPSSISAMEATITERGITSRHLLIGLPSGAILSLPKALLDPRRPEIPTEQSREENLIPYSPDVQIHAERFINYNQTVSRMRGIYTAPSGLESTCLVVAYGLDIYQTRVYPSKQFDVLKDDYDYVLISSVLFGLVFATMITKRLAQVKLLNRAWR
UniProt Q53HC9: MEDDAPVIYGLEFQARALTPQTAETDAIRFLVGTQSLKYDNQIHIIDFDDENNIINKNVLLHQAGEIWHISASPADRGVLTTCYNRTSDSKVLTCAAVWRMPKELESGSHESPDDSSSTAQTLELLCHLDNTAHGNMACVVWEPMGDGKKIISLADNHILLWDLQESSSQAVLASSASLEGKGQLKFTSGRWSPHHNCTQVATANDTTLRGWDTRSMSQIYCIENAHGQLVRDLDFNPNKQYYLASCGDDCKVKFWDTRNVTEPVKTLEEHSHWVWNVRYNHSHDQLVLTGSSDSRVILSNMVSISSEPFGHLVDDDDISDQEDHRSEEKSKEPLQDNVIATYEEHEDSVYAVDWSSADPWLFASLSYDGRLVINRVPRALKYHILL
UniProt P23588, whole entry, looked up: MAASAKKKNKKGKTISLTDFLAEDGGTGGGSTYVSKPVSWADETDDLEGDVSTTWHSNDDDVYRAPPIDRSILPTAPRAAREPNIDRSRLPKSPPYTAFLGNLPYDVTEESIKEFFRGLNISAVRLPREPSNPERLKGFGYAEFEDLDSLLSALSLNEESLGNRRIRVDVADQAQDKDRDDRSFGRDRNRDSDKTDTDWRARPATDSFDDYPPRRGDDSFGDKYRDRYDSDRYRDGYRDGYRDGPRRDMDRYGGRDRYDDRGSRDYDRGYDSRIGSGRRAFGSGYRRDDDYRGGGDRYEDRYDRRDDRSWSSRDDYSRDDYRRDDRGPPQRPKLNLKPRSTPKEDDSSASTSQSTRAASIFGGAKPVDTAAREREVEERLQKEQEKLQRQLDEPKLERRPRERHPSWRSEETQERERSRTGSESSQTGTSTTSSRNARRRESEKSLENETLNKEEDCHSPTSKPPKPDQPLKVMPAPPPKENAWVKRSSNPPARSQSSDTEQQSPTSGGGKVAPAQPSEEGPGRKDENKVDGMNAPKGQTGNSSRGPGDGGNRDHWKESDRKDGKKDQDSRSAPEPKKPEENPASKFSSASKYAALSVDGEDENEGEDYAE
UniProt O43402: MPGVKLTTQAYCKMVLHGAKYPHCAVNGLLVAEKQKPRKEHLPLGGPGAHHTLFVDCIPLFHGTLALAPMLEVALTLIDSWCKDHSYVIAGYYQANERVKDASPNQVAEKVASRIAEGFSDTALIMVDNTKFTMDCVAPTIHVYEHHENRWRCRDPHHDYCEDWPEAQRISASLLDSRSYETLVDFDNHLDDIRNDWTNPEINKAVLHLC

Assays:
Assay in all cases: log2 fold change, soluble protein after heating vs DMSO (PISA); higher = thermal stabilisation; K562 lysate, 10 uM; active = over 0.2 and 3.5 SD of the protein, either way, in both replicates (recomputed)
alvocidib = compound: CN1CC[C@H](c2c(O)cc(O)c3c(=O)cc(-c4ccccc4Cl)oc23)[C@H](O)C1 [alvocidib]
Procedure, shortened: (§1)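 Following dounce homogenisation of K562 pellets in PBS pH 7.4 with 1 mM MgCl2, crude extract at 1 mg/mL protein was incubated for 30 min with 10 μM compound. Aliquots were then heated for 3 min over 48°C-58°C and pooled, NP-40 was added to 0.5% at 4°C, and soluble protein was recovered as the supernatant at 21,000xg for 90 min. Channel-sum-equalised TMTpro 16plex LC-MS/MS quantified this protein. Each value, from duplicates, is a log-two fold change in thermal stability relative to solvent controls.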

Tubastatin A = compound: CN1CCc2c(c3ccccc3n2Cc2ccc(C(=O)NO)cc2)C1 [Tubastatin A]
Procedure, shortened: as §1

[1] = compound: CNC(=O)C1=CC=CC=C1NC2=NC(=NC=C2Cl)NC3=C(C=C(C=C3)N4CCOCC4)OC
Procedure, shortened: as §1

defactinib = compound: CNC(=O)c1ccc(Nc2ncc(C(F)(F)F)c(NCc3nccnc3N(C)S(C)(=O)=O)n2)cc1 [defactinib]
Procedure, shortened: as §1

[2] = compound: CNc1nc(-c2ccc3c(N)n[nH]c3c2)cc(N2C[C@@H](C(=O)NC3CCCCC3)CC[C@H]2C)n1
Procedure, shortened: as §1

encorafenib = compound: COC(=O)N[C@@H](C)CNc1nccc(-c2cn(C(C)C)nc2-c2cc(Cl)cc(NS(C)(=O)=O)c2F)n1 [encorafenib]
Procedure, shortened: as §1

[3] = compound: COC(=O)[C@H](CCSC)NC(=O)C1=C(C=C(C=C1)NC[C@H](CS)N)C2=CC=CC=C2
Procedure, shortened: as §1

alisertib = compound: COc1cc(Nc2ncc3c(n2)-c2ccc(Cl)cc2C(c2c(F)cccc2OC)=NC3)ccc1C(=O)O [alisertib]
Procedure, shortened: as §1

[4] = compound: COc1cc2nc(-c3cc(F)ccc3O)nc(N[C@@H]3CNC[C@H]3C(C)(C)O)c2cc1OC
Procedure, shortened: as §1

gefitinib = compound: COc1cc2ncnc(Nc3ccc(F)c(Cl)c3)c2cc1OCCCN1CCOCC1 [gefitinib]
Procedure, shortened: as §1

lapatinib = compound: CS(=O)(=O)CCNCc1ccc(-c2ccc3ncnc(Nc4ccc(OCc5cccc(F)c5)c(Cl)c4)c3c2)o1 [lapatinib]
Procedure, shortened: as §1

pictilisib = compound: CS(=O)(=O)N1CCN(Cc2cc3nc(-c4cccc5[nH]ncc45)nc(N4CCOCC4)c3s2)CC1 [pictilisib]
Procedure, shortened: as §1

crizotinib = compound: C[C@@H](Oc1cc(-c2cnn(C3CCNCC3)c2)cnc1N)c1c(Cl)ccc(F)c1Cl [crizotinib]
Procedure, shortened: as §1

[5] = compound: C[C@H](C1=CC=C(C=C1)C(=O)NC2=C3C=CNC3=NC=C2)N
Procedure, shortened: as §1

duvelisib = compound: C[C@H](Nc1ncnc2nc[nH]c12)c1cc2cccc(Cl)c2c(=O)n1-c1ccccc1 [duvelisib]
Procedure, shortened: as §1

gandotinib = compound: Cc1cc(Nc2cc(CN3CCOCC3)c3nc(C)c(Cc4ccc(Cl)cc4F)n3n2)n[nH]1 [gandotinib]
Procedure, shortened: as §1

tozasertib = compound: Cc1cc(Nc2cc(N3CCN(C)CC3)nc(Sc3ccc(NC(=O)C4CC4)cc3)n2)n[nH]1 [tozasertib]
Procedure, shortened: as §1

doramapimod = compound: Cc1ccc(-n2nc(C(C)(C)C)cc2NC(=O)Nc2ccc(OCCN3CCOCC3)c3ccccc23)cc1 [doramapimod]
Procedure, shortened: as §1

bafetinib = compound: Cc1ccc(NC(=O)c2ccc(CN3CC[C@H](N(C)C)C3)c(C(F)(F)F)c2)cc1Nc1nccc(-c2cncnc2)n1 [bafetinib]
Procedure, shortened: as §1

[6] = compound: Cc1cccc(CC(=O)N2CCc3c2ccc(-c2cn(C)c4ncnc(N)c24)c3F)n1
Procedure, shortened: as §1

Measured: log2 fold change

ERCC5 (UniProt P28715)
inactive: alvocidib -0.016 | Tubastatin A 0.027 | [1] 0.076 | defactinib 0.032 | [2] 0.008 | encorafenib 0.014 | [3] -0.039 | alisertib -0.023 | [4] 0.006 | gefitinib -0.043 | lapatinib 0.005 | pictilisib -0.034 | crizotinib -0.003 | [5] -0.018 | duvelisib 0.009 | gandotinib 0.038 | tozasertib -0.033 | doramapimod -0.027 | bafetinib -0.068 | [6] 0.005

EIF4ENIF1 isoform 3 (UniProt Q9NRA8)
inactive: alvocidib -0.028 | Tubastatin A -0.047 | [1] -0.008 | defactinib 0.059 | [2] 0.062 | encorafenib -0.009 | [3] -0.242 | alisertib 0.019 | [4] -0.012 | gefitinib 0.076 | lapatinib 0.072 | pictilisib 0.024 | crizotinib 0.011 | [5] -0.03 | duvelisib 0.019 | gandotinib 0.047 | tozasertib 0.072 | doramapimod -0.048 | bafetinib 0.042 | [6] 0.028

EMC6 (UniProt Q9BV81)
inactive: alvocidib 0.039 | Tubastatin A 0.225 | [1] 0.003 | defactinib -0.024 | [2] 0.036 | encorafenib 0.039 | [3] -0.029 | alisertib -0.235 | [4] -0.081 | gefitinib -0.327 | lapatinib 0.052 | pictilisib 0.022 | crizotinib -0.049 | [5] -0.014 | duvelisib 0 | gandotinib -0.037 | tozasertib 0.034 | doramapimod -0.098 | bafetinib -0.03 | [6] 0.054

2 records picked at random from those above, as already listed:
EMC6 (UniProt Q9BV81)
inactive: alvocidib 0.039 | Tubastatin A 0.225 | [1] 0.003 | defactinib -0.024 | [2] 0.036 | encorafenib 0.039 | [3] -0.029 | alisertib -0.235 | [4] -0.081 | gefitinib -0.327 | lapatinib 0.052 | pictilisib 0.022 | crizotinib -0.049 | [5] -0.014 | duvelisib 0 | gandotinib -0.037 | tozasertib 0.034 | doramapimod -0.098 | bafetinib -0.03 | [6] 0.054

EIF4ENIF1 isoform 3 (UniProt Q9NRA8)
inactive: alvocidib -0.028 | Tubastatin A -0.047 | [1] -0.008 | defactinib 0.059 | [2] 0.062 | encorafenib -0.009 | [3] -0.242 | alisertib 0.019 | [4] -0.012 | gefitinib 0.076 | lapatinib 0.072 | pictilisib 0.024 | crizotinib 0.011 | [5] -0.03 | duvelisib 0.019 | gandotinib 0.047 | tozasertib 0.072 | doramapimod -0.048 | bafetinib 0.042 | [6] 0.028

Later entries:

EPB41L3 (UniProt Q9Y2J2)
inactive: alvocidib -0.04 | Tubastatin A -0.094 | [1] 0.008 | defactinib 0.041 | [2] -0.036 | encorafenib -0.003 | [3] -0.023 | alisertib 0.013 | [4] -0.028 | gefitinib 0.008 | lapatinib 0.002 | pictilisib 0 | crizotinib 0.097 | [5] -0.029 | duvelisib -0.024 | gandotinib 0.02 | tozasertib 0.034 | doramapimod 0.027 | bafetinib -0.019 | [6] 0.067

EIF3K (UniProt Q9UBQ5)
inactive: alvocidib 0.017 | Tubastatin A 0.002 | [1] 0.009 | defactinib 0.031 | [2] 0.041 | encorafenib -0.012 | [3] 0.022 | alisertib 0.03 | [4] -0.012 | gefitinib -0.032 | lapatinib -0.013 | pictilisib 0.018 | crizotinib -0.005 | [5] 0.009 | duvelisib 0.037 | gandotinib -0.049 | tozasertib 0.015 | doramapimod -0.046 | bafetinib -0.049 | [6] -0.021

EPB41L2 (UniProt O43491)
inactive: alvocidib 0.025 | Tubastatin A 0.021 | [1] -0.007 | defactinib -0.003 | [2] 0.01 | encorafenib -0.01 | [3] -0.023 | alisertib -0.003 | [4] -0.003 | gefitinib -0.017 | lapatinib -0.017 | pictilisib 0.008 | crizotinib 0.017 | [5] 0.069 | duvelisib 0.003 | gandotinib -0.025 | tozasertib 0.004 | doramapimod -0.002 | bafetinib -0.013 | [6] -0.043

ELOA (UniProt Q14241)
inactive: alvocidib -0.041 | Tubastatin A -0.032 | [1] 0.073 | defactinib 0.046 | [2] 0.048 | encorafenib 0.022 | [3] 0.062 | alisertib 0.013 | [4] -0.036 | gefitinib 0 | lapatinib -0.045 | pictilisib -0.029 | crizotinib -0.071 | [5] -0.082 | duvelisib -0.012 | gandotinib 0.111 | tozasertib -0.022 | doramapimod 0.027 | bafetinib 0.09 | [6] 0.094

EIF4EBP1 (UniProt Q13541)
inactive: alvocidib 0.101 | Tubastatin A 0.12 | [1] 0.046 | defactinib 0.079 | [2] 0.029 | encorafenib 0.023 | [3] -0.005 | alisertib 0.065 | [4] -0.005 | gefitinib -0.054 | lapatinib 0.072 | pictilisib 0.025 | crizotinib 0.01 | [5] 0.055 | duvelisib 0.06 | gandotinib -0.118 | tozasertib 0.074 | doramapimod 0.022 | bafetinib -0.017 | [6] -0.08

EPB41L1 (UniProt Q9H4G0)
inactive: alvocidib -0.025 | Tubastatin A 0.021 | [1] 0.075 | defactinib -0.068 | [2] 0.016 | encorafenib -0.092 | [3] 0.056 | alisertib -0.081 | [4] -0.049 | gefitinib 0.035 | lapatinib 0.022 | pictilisib 0.023 | crizotinib -0.048 | [5] -0.036 | duvelisib -0.059 | gandotinib -0.021 | tozasertib 0.083 | doramapimod 0.048 | bafetinib -0.052 | [6] 0.032

EIF2B5 (UniProt Q13144)
inactive: alvocidib 0.03 | Tubastatin A -0.06 | [1] 0.04 | defactinib 0.022 | [2] 0.023 | encorafenib -0.009 | [3] 0.046 | alisertib -0.004 | [4] 0.005 | gefitinib -0.016 | lapatinib -0.01 | pictilisib -0.012 | crizotinib -0.009 | [5] -0.005 | duvelisib 0.001 | gandotinib -0.119 | tozasertib -0.019 | doramapimod 0.003 | bafetinib -0.033 | [6] 0.006

EPS15L1 isoform 2 (UniProt Q9UBC2)
inactive: alvocidib 0.017 | Tubastatin A 0.026 | [1] -0.008 | defactinib -0.009 | [2] -0.004 | encorafenib -0.006 | [3] -0.023 | alisertib -0.02 | [4] 0.013 | gefitinib 0.004 | lapatinib 0.025 | pictilisib 0.009 | crizotinib 0.029 | [5] -0.016 | duvelisib 0.011 | gandotinib 0.017 | tozasertib -0.014 | doramapimod 0.012 | bafetinib -0.002 | [6] -0.045

EMC1 (UniProt Q8N766)
inactive: alvocidib -0.024 | Tubastatin A 0.023 | [1] -0.003 | defactinib 0.042 | [2] -0.053 | encorafenib 0.026 | [3] -0.057 | alisertib -0.01 | [4] -0.004 | gefitinib 0.016 | lapatinib -0.028 | pictilisib -0.025 | crizotinib -0.007 | [5] -0.135 | duvelisib 0.016 | gandotinib 0.005 | tozasertib 0.028 | doramapimod -0.003 | bafetinib -0.025 | [6] 0.043

EIPR1 (UniProt Q53HC9)
inactive: alvocidib -0.053 | Tubastatin A 0.023 | [1] -0.002 | defactinib -0.007 | [2] 0.006 | encorafenib 0.029 | [3] -0.002 | alisertib -0.054 | [4] 0.007 | gefitinib 0.011 | lapatinib -0.001 | pictilisib -0.009 | crizotinib -0.01 | [5] -0.028 | duvelisib 0.001 | gandotinib 0.009 | tozasertib 0.017 | doramapimod 0.016 | bafetinib 0.018 | [6] 0.049

EIF4B (UniProt P23588)
inactive: alvocidib -0.024 | Tubastatin A 0.053 | [1] 0.002 | defactinib -0.02 | [2] -0.003 | encorafenib 0.007 | [3] -0.04 | alisertib 0.009 | [4] -0.006 | gefitinib 0.029 | lapatinib 0.014 | pictilisib 0.026 | crizotinib 0.02 | [5] -0.065 | duvelisib 0.004 | gandotinib 0.074 | tozasertib -0.022 | doramapimod -0.037 | bafetinib 0.03 | [6] 0.011

ENDOG (UniProt Q14249)
inactive: alvocidib 0.046 | Tubastatin A 0.035 | [1] -0.019 | defactinib -0.007 | [2] 0.032 | encorafenib 0.003 | [3] -0.081 | alisertib 0.019 | [4] 0.009 | gefitinib 0.038 | lapatinib 0.016 | pictilisib -0.021 | crizotinib -0.036 | [5] 0.036 | duvelisib 0 | gandotinib -0.044 | tozasertib 0.005 | doramapimod -0.018 | bafetinib 0.015 | [6] 0.003

EMC8 (UniProt O43402)
inactive: alvocidib -0.015 | Tubastatin A 0.009 | [1] -0.018 | defactinib -0.029 | [2] -0.063 | encorafenib 0.013 | [3] -0.025 | alisertib -0.036 | [4] 0.009 | gefitinib 0.004 | lapatinib 0.009 | pictilisib -0.088 | crizotinib 0.012 | [5] -0.033 | duvelisib 0.011 | gandotinib -0.094 | tozasertib 0.021 | doramapimod -0.049 | bafetinib 0.006 | [6] 0.012
